In PubChem BioAssay AID1487 (National Center for Advancing Translational Sciences (NCATS), 2009):
Values joined by “and” are separate entries in the source; they are usually repeats but may differ in a detail not shown here. Equal entries are not always repeated. This is one part of the list. Shown are side measurements of this screen, not its main read-out; they come without a call. The list favours compounds with an active or inconclusive main result. Potencies come from curve fits of mixed quality, noted in brackets.

Experiment: qHTS Assay for Modulators of Lamin A Splicing
Conditions: HeLa LMNA splicing GFP/RFP minigene ratio, 48 h
How it was run: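 S3 HeLa cells stably expressing lamin A-EGFP splicing minigene plus DsRed2, 600 cells/well, 48 h compound exposure at 37C. Laser-scanning cytometry; analysed as GFP (500-530 nm)/RFP (575-640 nm) total intensity ratio; 0.5% DMSO vehicle.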

[1] = measured here: GFP splicing reporter channel
[2] = measured here: RFP viability control channel

Structure (SMILES) | AC50 [1] | AC50 [2]
Cc1cccc2cc(CN(Cc3ccc(F)cc3)C(=O)N(C)C)c3nnnn3c12 | 12.6 µM [rising, partial curve] | 14.1 µM [rising, partial curve]
CC(=O)n1nc(-c2ccccc2)nc1NCc1ccc(N(C)C)cc1 | 5.62 µM [falling, single point] | 5.62 µM [falling, partial curve]
COc1ccc(CNC(=O)CCn2c(=O)c3cccn3c3ccc(F)cc32)cc1OC | 25.1 µM [rising, partial curve, poor fit] | 
O=C(Cn1ncc(Cl)c(Cl)c1=O)N1CCN(Cc2ccccc2)CC1 |  | 12.6 µM [rising, single point]
CCC1CCCCN1S(=O)(=O)c1ccc(C(=O)Nc2nnc(-c3ccccc3Cl)o2)cc1 (stereo not given) |  | 2.51 µM [rising, full curve]
CCOc1ccc(-c2nnc(SCC(=O)NC3CCCCC3)nc2-c2ccc(OCC)c(OC)c2)cc1OC | 0.398 µM [rising, full curve, poor fit] | 0.398 µM [rising, full curve, poor fit]
COc1ccc(CN(CCN(C)C)c2ncccn2)cc1 | 0.000794 µM [falling, full curve, poor fit] | 35.5 µM [falling, single point]
COc1ccc(-c2[nH]ncc2Oc2ccccc2OC)c(O)c1 | 12.6 µM [rising, partial curve] | 11.2 µM [rising, partial curve]
CCn1c(SCc2ccccc2)nnc1-c1cccs1 |  | 20 µM [rising, single point]
CC(C)c1ccc(NC(=O)c2cc(S(=O)(=O)NCCc3ccccc3)ccc2F)cc1 | 7.94 µM [falling, partial curve, poor fit] | 8.91 µM [falling, partial curve, poor fit]
Cn1c2c(c(=O)c3ccccc31)CCC(C)(C)O2 |  | 0.00501 µM [falling, full curve, poor fit]
CCC(=O)c1ccc(OCC(O)Cn2nnc3ccccc32)cc1 (stereo not given) | 0.0398 µM [falling, full curve, poor fit] | 
Oc1ccc(C2CNCc3sccc32)cc1O (stereo not given) |  | 0.112 µM [falling, full curve, poor fit]
COC(=O)c1c(NC(C)=O)csc1C | 3.16 µM [rising, single point] | 
Cc1cc(C(=O)OCC(=O)NCCC(C)C)c2ccccc2n1 | 0.00447 µM [falling, full curve, poor fit] | 0.00398 µM [falling, full curve, poor fit]
CCOc1ncccc1C(=O)NCCN1C(=O)S/C(=C/c2cccs2)C1=O |  | 4.47 µM [rising, partial curve]
Cc1nc(N2CCN(Cc3nc4ccccc4[nH]3)CC2)c2oc3ccccc3c2n1 |  | 12.6 µM [rising, partial curve]
O=C(NCCCn1ccnc1)c1cc2ccccc2oc1=O |  | 0.112 µM [rising, full curve, poor fit]
COc1ccc(N(CC(=O)Nc2cc(Cl)ccc2OC)S(=O)(=O)c2c(C)noc2C)cc1 |  | 35.5 µM [rising, single point]
C=CCNC(=S)N/N=C/c1ccc(C)c([N+](=O)[O-])c1 | 22.4 µM [rising, single point] | 22.4 µM [rising, single point]
Cc1c(N=Cc2cc(Br)cc(Br)c2O)cccc1C(=O)O | 31.6 µM [rising, single point] | 25.1 µM [rising, single point]
CN1CCC/C1=C/C=C1\SC(=S)NC1=O | 17.8 µM [falling, partial curve] | 11.2 µM [falling, partial curve]
CCOc1ccc(/C=N/n2c(SC)nnc(C(C)(C)C)c2=O)cc1 | 3.55 µM [rising, single point] | 
CC(C)(C)NC(=O)Cn1c(SCC(=O)N2CCCCCC2)nc2ccccc21 | 0.0224 µM [rising, full curve, poor fit] | 
CCc1nnc(NC(=O)CSc2nnc(-c3cccnc3)n2CC)s1 |  | 39.8 µM [falling, partial curve, poor fit]
CC(=O)c1ccc(NC(=O)CN2C(=O)c3cccnc3Sc3ccccc32)cc1 | 0.355 µM [falling, full curve, poor fit] | 
CC1CN(C(=O)Nc2ccc3c(c2)OCCO3)CC(C)O1 (stereo not given) |  | 0.0224 µM [falling, full curve, poor fit]

Structure (SMILES) | AC50 [1] | AC50 [2]
C=C(C)COc1ccc(-c2n[nH]c(C)c2-c2ccc(OC)cc2)c(O)c1 | 35.5 µM [falling, partial curve] | 0.282 µM [falling, partial curve]
O=C(COc1ccccc1F)NC1CC(=O)N(c2ccc3c(c2)OCCO3)C1 (stereo not given) |  | 3.16 µM [falling, single point]
COCCn1c(SCC(=O)c2ccccc2)nc2c(c1=O)SC(C)C2 (stereo not given) |  | 11.2 µM [rising, partial curve, poor fit]
O=C(N/N=C/c1cccs1)c1cc(C2CC2)nc2ccccc12 |  | 7.08 µM [rising, full curve]
O=C(Nc1ncccc1O)c1cccc(S(=O)(=O)N2CCc3ccccc32)c1 |  | 22.4 µM [rising, partial curve]
CCOc1ccc(NC(=O)CN2C(=O)CCSc3ccc(S(=O)(=O)N4CCCC4)cc32)cc1 | 2.51 µM [falling, partial curve, poor fit] | 35.5 µM [falling, partial curve, poor fit]
Cc1oc(C(=O)Nc2ccc(C(=O)O)cc2)cc1COc1ccccc1 |  | 14.1 µM [falling, partial curve, poor fit]
CC1CCC(C(C)C)C2=C1C(C#N)(C#N)C(C#N)(C#N)C(c1ccccc1)N2 (stereo not given) |  | 1.58 µM [falling, partial curve, poor fit]
Cc1ccc(C2(CCNS(=O)(=O)c3ccc(C)cc3)CCOC(C(C)C)C2)cc1 (stereo not given) |  | 35.5 µM [rising, single point]
C=C(C)C1CC=C(C)/C(=N/NC(=O)COc2ccccc2Cl)C1 (stereo not given) | 25.1 µM [rising, single point] | 31.6 µM [rising, single point]
CN=c1scc(-c2cccs2)n1/N=C/c1ccccc1O |  | 17.8 µM [rising, partial curve]
COc1cccc(C(=O)Nc2ccc3nc(SCc4ccc(C)cc4)sc3c2)c1 | 3.98 µM [rising, full curve, poor fit] | 
O=C(N/N=C/c1c[nH]c2ccccc12)c1cc(-c2ccc3ccccc3c2)n[nH]1 | 35.5 µM [falling, single point] | 2.82 µM [rising, single point]
C=CCn1c(COc2cccc(C)c2)nnc1SCn1nnc2ccccc2c1=O | 14.1 µM [rising, single point] | 35.5 µM [rising, single point]
CCC(Oc1ccccc1)C(=O)NC1C(=O)N2C1SC(C)(C)C2C(=O)O (stereo not given) | 0.0178 µM [falling, full curve] | 35.5 µM [rising, single point]
Cc1cccc(C)c1NC(=O)CSCC(=O)c1ccc(O)c(O)c1 | 35.5 µM [falling, single point] | 
COc1ccc(NS(=O)(=O)c2ccc(SC)cc2)c(OC)c1 |  | 28.2 µM [rising, single point]
COc1cc(OC)cc(C(=O)NCc2ccc3c(c2)CCN3C(=O)c2ccccc2)c1 | 35.5 µM [rising, single point] | 15.8 µM [rising, single point]
Cc1ccc(N=C2SC(C(=O)Nc3ccc(OC(F)(F)F)cc3)C(N)=C2C(=O)Nc2c(C)cc(C)cc2C)cc1 (stereo not given) | 35.5 µM [falling, single point] | 35.5 µM [falling, single point]
CC1CCCCN1CC(=O)Nc1ccccc1Sc1ccccc1 (stereo not given) | 22.4 µM [rising, single point] | 35.5 µM [rising, partial curve, poor fit]
NNC(=O)c1cc(Br)cs1 |  | 4.47 µM [rising, full curve]
Nc1cc(Cl)ccc1C(=O)OCC(=O)NC(=O)NCc1ccccc1 | 14.1 µM [rising, single point] | 31.6 µM [rising, single point]
O=c1cc(CO)oc(C(Nc2ccccn2)c2cccc(F)c2)c1O (stereo not given) |  | 11.2 µM [rising, single point]
COc1cc(/C=N/N=C(/C(=O)c2ccccc2)c2ccccc2)cc(OC)c1O | 5.62 µM [rising, partial curve, poor fit] | 
COCCOC(=O)C1=C(C)NC(C)=C(C(=O)OC(C)C)C1c1cccc([N+](=O)[O-])c1 (stereo not given) | 14.1 µM [falling, partial curve] and 0.794 nM [falling, full curve, poor fit] and 12.6 µM [rising, partial curve, poor fit] | 4.47 nM [falling, full curve, poor fit] and 20 µM [rising, partial curve]
Cc1cc2c(cc1S(=O)(=O)CCC(=O)NCc1ccccc1)OCC(=O)N2 | 35.5 µM [falling, single point] | 0.00316 µM [falling, full curve, poor fit]

An excerpt of these results, field by field.
CCOc1ccc(NC(=O)CN2C(=O)CCSc3ccc(S(=O)(=O)N4CCCC4)cc32)cc1
  AC50 [1]: 2.51 µM [falling, partial curve, poor fit]; AC50 [2]: 35.5 µM [falling, partial curve, poor fit]
Cc1oc(C(=O)Nc2ccc(C(=O)O)cc2)cc1COc1ccccc1
  AC50 [2]: 14.1 µM [falling, partial curve, poor fit]
